Source: PubChem BioAssay AID540275 (National Center for Advancing Translational Sciences (NCATS), 2011)
About 620 (0.19%) of roughly 320,000 compounds were called active. This list was built around the results that the source calls inconclusive (neither active nor inactive); the mix of calls is not that of the screen. No stated cut-off is given here; in the data, active means activation above about 80%; inconclusive means between about 30% and that limit; inactive means weaker than that.
Further: 0% is about no effect.

By UniProt entry, the sequences of proteins in these tests, tags left out.
UniProt Q8NER1, whole entry, looked up: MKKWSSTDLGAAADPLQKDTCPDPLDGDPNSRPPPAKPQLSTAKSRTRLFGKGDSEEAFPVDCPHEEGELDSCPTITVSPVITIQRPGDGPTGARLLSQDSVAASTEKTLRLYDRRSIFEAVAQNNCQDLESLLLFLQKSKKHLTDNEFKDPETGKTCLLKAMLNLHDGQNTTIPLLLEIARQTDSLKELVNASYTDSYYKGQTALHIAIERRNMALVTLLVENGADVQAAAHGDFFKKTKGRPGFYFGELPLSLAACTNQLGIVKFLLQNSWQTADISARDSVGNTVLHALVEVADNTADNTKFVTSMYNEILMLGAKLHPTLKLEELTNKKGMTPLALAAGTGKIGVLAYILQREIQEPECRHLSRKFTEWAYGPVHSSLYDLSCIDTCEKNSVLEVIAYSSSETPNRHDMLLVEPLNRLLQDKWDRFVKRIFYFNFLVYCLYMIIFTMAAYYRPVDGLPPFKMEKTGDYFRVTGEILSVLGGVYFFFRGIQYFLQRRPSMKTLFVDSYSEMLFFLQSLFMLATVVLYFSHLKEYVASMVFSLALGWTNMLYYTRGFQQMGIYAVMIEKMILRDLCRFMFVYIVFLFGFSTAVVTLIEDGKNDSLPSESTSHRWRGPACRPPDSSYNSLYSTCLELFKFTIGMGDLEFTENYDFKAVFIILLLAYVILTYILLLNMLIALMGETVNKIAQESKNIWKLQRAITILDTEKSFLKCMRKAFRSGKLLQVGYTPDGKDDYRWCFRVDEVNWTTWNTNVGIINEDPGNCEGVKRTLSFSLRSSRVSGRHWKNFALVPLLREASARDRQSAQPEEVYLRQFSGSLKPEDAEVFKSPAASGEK

The molecules below were run against Transient receptor potential cation channel subfamily V member 1 (Homo sapiens) (UniProt Q8NER1) (assay: HTS Assay for Compounds that Act as Agonists of the Vanilloid Receptor 1). Details: TRPV1-expressing cells, Fluo-8 calcium influx, agonist mode; at 8.33 µM, stronger effect = higher value.
Summary of the method: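 Fluo-8 calcium influx in TRPV1-expressing cells, kinetic read (ex 480/em 520 nm). Compound added and read 3 min for agonist activity, followed by capsaicin at EC20 final and 2 min further read for enhancement.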
With `Cc1ccc(NC(=O)C2COc3ccccc3O2)cc1` (stereo not given) the activation was inconclusive: 64.7%. In the case of `CCN(CC1COc2ccccc2O1)C(=O)CN1C(=O)NC(C)(c2ccccc2)C1=O` (stereo not given), the activation is reported as inconclusive: 33.1%. In the case of `CCCC12CN3CC(C)(CN(C1)C3c1ccco1)C2=O` (stereo not given), the activation is reported as inconclusive: 40.7%. With `O=C(CNC(=S)N(Cc1ccccc1F)C1CCCCC1)NC1CC1` the activation was inconclusive: 51.9%. `CCOC(=O)c1[nH]c2ccc(F)cc2c1NC(=O)c1cc(OC)c(OC)c(OC)c1` was tested, and the activation was inconclusive: 34%. In the case of `Cc1ccc(-n2[nH]c(C)c(/C=N/NC(=O)c3ccc(O)cc3O)c2=O)cc1`, the activation is reported as inconclusive: 36.9%. `CC1(C)O[C@@H]2C[C@H]3[C@@H]4CCC5=CC(=O)CC[C@]5(C)[C@@]4(F)[C@@H](O)C[C@]3(C)[C@]2(C(=O)CCl)O1` was tested, and the activation was inactive: -0.133%. In the case of `Cc1cc(NC(=O)CN2CCCCC2)no1`, the activation is reported as inactive: -2.39%. `COc1ccc(N2CCN(C3CCCCC3NS(=O)(=O)c3ccc(Cl)cc3)CC2)cc1` (stereo not given) was tested, and the activation was inactive: 4.71%. With `C/C(CC(=O)Nc1ccc(Cl)c(C(F)(F)F)c1)=N\NC(N)=S` the activation was inactive: 14.7%. With `CCC(CC)NC(=O)c1oc2ccccc2c1COc1ccccc1` the activation was inconclusive: 40.7%. For `COc1ccc(-n2cc(CNCCc3ncc(C)[nH]3)c(-c3ccccc3Cl)n2)cc1`, the activation was inconclusive: 45.9%. For `O=C(CCCN1C(=O)c2cccnc2C1=O)Nc1ccc(Br)cc1`, the activation was inactive: -2.33%. With `BrC(/C=N/N1CCN(Cc2ccccc2)CC1)=C/c1ccccc1` the activation was inconclusive: 39.8%. In the case of `Cc1cc(C(=O)COC(=O)c2ccc(O)cc2)c(C)n1-c1ccccc1F`, the activation is reported as inconclusive: 54.7%. For `Cc1ccc(-n2cc[nH]c2=S)cc1C`, the activation was inactive: 2.02%. For `CCOC(=O)/C(C#N)=C\c1cn(C)c2ccccc12`, the activation was inconclusive: 33.6%. For `COc1ccccc1/C=C/C=C(\C#N)C(=O)NC(C)c1ccccc1` (stereo not given), the activation was inconclusive: 32.2%. With `O=C(N/C(=C/c1cccc([N+](=O)[O-])c1)C(=O)N1CCCCCC1)c1cccs1` the activation was inconclusive: 74.9%. For `Clc1ccc(-c2nnc(-c3ccccc3)o2)c(Cl)c1`, the activation was inconclusive: 35.9%. In the case of `CC(=O)c1c(C)[nH]c(C(=O)OCC(=O)Nc2cc(S(=O)(=O)N3CCCC3)ccc2Cl)c1C`, the activation is reported as inactive: -0.906%. `O=C(CSc1cn(Cc2ccccc2)c2ccccc12)N1CCOCC1` was tested, and the activation was inconclusive: 34.6%. `Cc1ccc(S(=O)(=O)NCc2ccccc2)cc1C(=O)N(C)Cc1ccc(F)cc1` was tested, and the activation was inactive: 2.75%. In the case of `Cc1ccc(C(C)(C)C)cc1S(=O)(=O)N1CCC(C(=O)N2CCN(c3ccc(O)cc3)CC2)CC1`, the activation is reported as inconclusive: 40.4%. For `Cc1cc2oc(=O)cc(CN(C)Cc3ccccc3Cl)c2cc1C`, the activation was inconclusive: 43.5%. `COc1cc(/C=C2/C(=O)N(C)C(=S)N2C)ccc1OCc1cccc(F)c1` was tested, and the activation was inactive: 1.22%. In the case of `O=C(COC(=O)Cc1ccccc1F)Nc1cccc(F)c1`, the activation is reported as inconclusive: 50%. For `COc1cccc(NC(=O)Nc2ccc(C(C)(C)C)cc2)c1`, the activation was active: 82.2%. For `COc1cccc(-n2ccnc2SCC(=O)N2CCc3ccccc32)c1`, the activation was inconclusive: 64%. `COc1ccc(NS(=O)(=O)c2cc(NC(=O)c3cccs3)ccc2N2CCOCC2)cc1` was tested, and the activation was inconclusive: 30.3%. For `COc1cccc(CN2CCN(C(c3ccccc3)c3ccccc3)CC2)c1O`, the activation was inactive: 11.9%. For `Clc1cccc(Nc2ncnc3ccc(Br)cc23)c1`, the activation was inconclusive: 55.9%. `O=C(COc1cccc(Cl)c1)NCc1ccccc1` was tested, and the activation was inconclusive: 56.3%. For `O=S(=O)(Nc1ccc(C(F)(F)F)cc1)c1cccs1`, the activation was inactive: 1.24%. `CCOc1ccc(-c2nnc3n2N=C(c2ccc(OC)cc2)CS3)cc1` was tested, and the activation was inconclusive: 30.5%. `Cc1cn(CCC(=O)Nc2ccc(N3CCOCC3)cc2)c2ccccc12` was tested, and the activation was inconclusive: 60.3%. `COc1ccc(OCC(=O)Nc2ccc3c(c2)nc(CCN2CCCCC2)n3C)cc1` was tested, and the activation was inactive: 1.45%. For `Cc1noc(-c2ccc(Cl)cc2)c1C(=O)O/N=C(\N)c1ccc(C(C)(C)C)cc1`, the activation was inconclusive: 43.9%. With `CCCCCCN1C=C/C(=C\C=C(C#N)C#N)c2ccccc21` the activation was inactive: -2.82%. For `COc1ccc(C(=O)NC(=S)N(C)C2CCCCC2)cc1`, the activation was inconclusive: 51.5%. `CCCCN(CCCC)C(=O)CCS(=O)(=O)c1ccc2c(c1)n(C)c(=O)c(=O)n2C` was tested, and the activation was inconclusive: 39.7%. With `Cc1nc(-c2ccc(O)c(O)c2)cs1` the activation was inconclusive: 54.5%. For `Cc1ccc(SC[C@H](CC(C)C)N2CCN(CCc3ccccc3)CCC2=O)cc1`, the activation was inactive: 24.6%. For `CCOc1ccc(C(=O)Nc2cc(S(=O)(=O)Nc3ccccc3Cl)ccc2N2CCOCC2)cc1`, the activation was inactive: -0.796%. In the case of `COc1ccc(NC(=O)c2noc3c2CCC3)cc1`, the activation is reported as inconclusive: 37%. In the case of `COCc1nnc(NC(=O)c2ccc(S(=O)(=O)N3CCCC3)cc2)o1`, the activation is reported as inactive: -4.02%. For `O=C(/C=C/c1ccco1)NC(=S)Nc1nc(-c2ccc(Cl)cc2)cs1`, the activation was inactive: -0.177%. For `OC(COc1ccccc1)CN1CCCCCC1` (stereo not given), the activation was inactive: -1.07%. With `CCOC(=O)c1cc(-c2ccccc2)n(CCC(=O)NC(C)CC)c1C` (stereo not given) the activation was inconclusive: 64.5%. For `CC(=O)N1CCc2cc(S(=O)(=O)NCCC(=O)Nc3cccc(C)c3C)ccc21`, the activation was inconclusive: 47.9%. For `O=C(NCC1COc2ccccc2O1)c1cccc(S(=O)(=O)N2CCCCC2)c1` (stereo not given), the activation was inconclusive: 38.6%. With `CCOc1cc(C(=O)NCc2nnc(SCC(=O)OC)n2C)cc(OCC)c1OCC` the activation was inactive: 2.47%. `O=C(NCc1cccs1)C1CCCN(S(=O)(=O)c2ccc(Br)s2)C1` (stereo not given) was tested, and the activation was inconclusive: 46.9%. `Cc1ccc(N(C)S(=O)(=O)c2ccc(-c3cc(C)no3)s2)cc1` was tested, and the activation was inconclusive: 32.4%. For `Clc1ncnc2scc(C3COc4ccccc4O3)c12` (stereo not given), the activation was inconclusive: 32.1%. `COc1cc(Cl)ccc1OCc1cc(C(=O)N(C)CCc2cnn(C)c2)no1` was tested, and the activation was inconclusive: 31%. For `COc1ccc(/C=C/C(=O)C2CC2)cc1COc1c(C)cccc1C`, the activation was inconclusive: 70.1%. With `CCc1ccc2nc(N3CCN(C(=O)C(C)(C)C)CC3)sc2c1` the activation was inconclusive: 48.8%. `CC12CCC(C(=O)N3CCN(c4ncccn4)CC3)(c3nc4ccccc4nc31)C2(C)C` (stereo not given) was tested, and the activation was inconclusive: 34.6%. In the case of `CCC(C)c1ccc(O)c(NC(=O)c2cccnc2)c1` (stereo not given), the activation is reported as inconclusive: 33.5%. `O=C(COC(=O)CCC1CCCC1)NCc1ccc(Cl)cc1` was tested, and the activation was inconclusive: 48.6%. With `Cc1cc(Cl)ccc1OCC(=O)N1CCCCC1` the activation was inconclusive: 54.5%. In the case of `COc1cc(C(=O)N(CCN(C)C)CC2CCCN(Cc3ccccc3F)C2)ccc1C` (stereo not given), the activation is reported as inactive: -6.14%. With `O=C(Cc1ccccc1F)Nc1nc(-c2ccc(F)c(F)c2)cs1` the activation was inconclusive: 70.3%. With `CCOc1ccc2c(c1)C(c1ccc(C)cc1)=NNC(c1ccc(C)cc1)=N2` the activation was inconclusive: 42.9%. In the case of `Cc1c(C(=O)NC(c2ccccn2)C(F)(F)F)oc2c(F)cccc12` (stereo not given), the activation is reported as inconclusive: 41.5%. With `CC(Oc1ccccc1)C(=O)N1CCN=C1SCc1cccc(F)c1` (stereo not given) the activation was inconclusive: 42.2%. `COc1cc2[nH]c3c(N4CCN(c5ccc(Cl)cc5)CC4)ncnc3c2cc1OC` was tested, and the activation was inactive: -1.59%. For `CCN(CC)CCCNC(=O)c1cn(CCOC)c(=O)c2c1c1ccccc1n2C`, the activation was inactive: 1.3%. For `COc1ccc(C)cc1S(=O)(=O)NCC(c1cccnc1)N1CCc2ccccc2C1` (stereo not given), the activation was inconclusive: 32.4%. With `COc1ccc(C(=O)NCC(=O)OCC(=O)c2ccc3c(c2)OCCO3)cc1` the activation was inactive: 0.77%. In the case of `CC(=C/c1ccc(C(C)C)cc1)/C=N/NC(=O)c1ccncc1`, the activation is reported as inconclusive: 43.3%. With `O=C(NCCS(=O)(=O)c1ccc(Br)cc1)c1ccc(Cl)cc1` the activation was inconclusive: 57%. With `COC(=O)c1ccccc1NC(=S)NC(C)=O` the activation was inactive: -5.97%. `COc1ccc(C(C)=O)cc1COC(=O)CCNS(=O)(=O)c1ccc(C(C)=O)cc1` was tested, and the activation was inactive: 26.4%. `COc1cccc(/C=N/Nc2ncccc2[N+](=O)[O-])c1OC` was tested, and the activation was inactive: 0.516%. In the case of `Cc1nc2c(c(=O)c3ccccc3n2C)c(=O)n1C1CCCCCC1`, the activation is reported as inactive: 20%. With `COc1cc(CNCCc2ccc(S(N)(=O)=O)cc2)ccc1OCc1ccc(Cl)cc1` the activation was inactive: 3.93%. For `O=C(CNc1ccc2ccccc2c1)N/N=C/c1ccncc1`, the activation was inconclusive: 51.8%. With `CC12CCC(C/C1=N\N=C1\NC(=O)/C(=C\c3ccc(Cl)cc3)S1)C2(C)C` (stereo not given) the activation was inconclusive: 50.8%. With `Cc1csc(SCC(=O)NC23CC4CC(CC(C4)C2)C3)n1` the activation was inconclusive: 31.6%. `COc1cccc(N2CCN(C(=O)c3cccnc3)CC2)c1` was tested, and the activation was inactive: -4.21%. For `Cc1ccc(S(=O)(=O)Oc2ccc(/C=N/NC(=O)c3nn(C)cc3Cl)cc2)cc1`, the activation was inconclusive: 30.8%. With `CC1(C)Cc2cccc(OCC(=O)NCCc3ccccc3)c2O1` the activation was inconclusive: 38.5%. In the case of `CC(=O)c1ccc2c(c1)Nc1ccccc1S2`, the activation is reported as inconclusive: 42.1%. In the case of `CCOC(=O)C1=C(Nc2ccccc2)CC(C)(O)C(C(=O)OCC)C1c1ccccc1` (stereo not given), the activation is reported as inconclusive: 31.5%. `COC(=O)c1c(N)sc(C(=O)NCCc2ccccc2)c1C` was tested, and the activation was inactive: 2.92%. For `Cc1ccc(C23CC4CC(CC(CC(=O)N5CCOCC5)(C4)C2)C3)cc1`, the activation was inconclusive: 77.8%. In the case of `C=CCN(c1ccc(C(=O)Nc2ccc3c(c2)OCO3)cc1)S(C)(=O)=O`, the activation is reported as inactive: 28.1%. For `CC(=O)c1oc2ccccc2c1NC(=O)CCCN1C(=O)c2ccccc2C1=O`, the activation was inactive: 0.208%.
